# Where a name gives a salt, the structure may show the parent alone. Some of the results follow. Many values rest on one well or one pass, so single values are uncertain.
# Test system: Reh
# Test: S-phase gammaH2AX median, Z-score vs plate median (drug alone); higher = more S-phase DNA damage
# Conditions: MK1775 concentration 0 nM; 10 µM; 4 h
row,Structure (SMILES),S-phase gammaH2AX median (Z-score)
1,CCN(CC)CCCCNc1ncc2cc(-c3cc(OC)cc(OC)c3)c(NC(=O)NC(C)(C)C)nc2n1,0.0236
2,"CN(C)CCC(c1ccc(Br)cc1)c1ccccn1 (single isomer, unassigned; (+)) [(+)-Brompheniramine maleate]",-0.068
3,CC(C)C[C@H](NC(=O)CNC(=O)c1cc(Cl)ccc1Cl)B1OC(=O)C(CC(=O)O)(CC(=O)O)O1,-0.139
4,"CC(N)(Cc1ccc(O)c(O)c1)C(=O)O (racemic) [(?)-3-(3,4-dihydroxyphenyl)-2-methyl-DL-alanine]",0.18
5,CCCCNc1c(C(=O)OCC)c(C)nc2c1cnn2CC [Tracazolate],-0.0868
6,CC(C)c1ccc(Cn2ccc3c4c(N)nc(NC5CC5)nc4ccc32)cc1,-0.0777
7,COc1cc(-c2ccc(=O)[nH]n2)ccc1OC(F)F [Zardaverine],-0.714
8,Cc1ccc([N+](=O)[O-])cc1S(=O)(=O)N(C)/N=C/c1cnc2ccc(Br)cn12,0.0182
9,O=C(Nc1cc(C(=O)Nc2ccc(S(=O)(=O)O)cc2S(=O)(=O)O)cc(C(=O)Nc2ccc(S(=O)(=O)O)cc2S(=O)(=O)O)c1)Nc1cc(C(=O)Nc2ccc(S(=O)(=O)O)cc2S(=O)(=O)O)cc(C(=O)Nc2ccc(S(=O)(=O)O)cc2S(=O)(=O)O)c1 [NF449 octasodium salt],-0.0568
10,CCCCCCCc1ccc(CCc2cccc(O)c2C(=O)O)cc1,0.0878
11,CC(N)=NCCC[C@H](N)C(=O)O [L-N5-(1-Iminoethyl)ornithine hydrochloride],0.205
12,CC[N+](CC)(CC)CC(=O)Nc1c(C)cccc1C [Lidocaine N-ethyl bromide quaternary salt],-0.0355
13,NCCNS(=O)(=O)c1cccc2cnccc12 [H-9 dihydrochloride],-0.109
14,NC(N)=Nc1nc(CSCC/C(N)=N/S(N)(=O)=O)cs1 [Famotidine],-0.0283
15,Nc1nc(OCc2ccccc2)c2nc[nH]c2n1 [O6-benzylguanine],0.068
16,CC1=C(/C=C/C(C)=C/C=C/C(C)=C\C(=O)O)C(C)(C)CCC1 [13-cis-retinoic acid],0.0142
17,CSc1ccc2c(c1)N(CCC1CCCCN1C)c1ccccc1S2 (stereo not drawn) [Thioridazine hydrochloride],-1.15
18,NC1C=CC=C(C(=O)O)C1 (stereo not drawn) [Gabaculine hydrochloride],0.0291
19,CC(C)(Sc1ccc(CCN(CCCCC2CCCCC2)C(=O)NC2CCCCC2)cc1)C(=O)O,0.0535
20,OC(CN1CCN(c2cccc(Cl)c2)CC1)C(c1ccccc1)c1ccccc1 (stereo not drawn),0.0175
21,COc1ccc(-c2ccc3c(N4CCOCC4)nc(N4C[C@@H](C)O[C@@H](C)C4)nc3n2)cc1CO,-0.146
22,Nc1ccc(CCNc2ncnc3c2ncn3C2OC(CO)C(O)C2O)cc1 (stereo not drawn) [N6-2-(4-Aminophenyl)ethyladenosine],-0.0757
23,OCC1OC(n2cnc3c(NCCc4ccccc4)ncnc32)C(O)C1O (stereo not drawn) [N6-2-Phenylethyladenosine],-0.052
24,OC[C@H]1O[C@@H](n2cnc3c(Nc4ccccc4)ncnc32)[C@H](O)[C@@H]1O [N6-Phenyladenosine],-0.102

# A section taken from the entries so far, for reference:
row,Structure (SMILES),S-phase gammaH2AX median (Z-score)
17,CSc1ccc2c(c1)N(CCC1CCCCN1C)c1ccccc1S2 (stereo not drawn) [Thioridazine hydrochloride],-1.15
18,NC1C=CC=C(C(=O)O)C1 (stereo not drawn) [Gabaculine hydrochloride],0.0291

# Next part:

row,Structure (SMILES),S-phase gammaH2AX median (Z-score)
1,CCN1CCc2nc(N)oc2CC1 [B-HT 933 dihydrochloride],0.107
2,C[N+](C)(C)CCOC(=O)CCC(=O)OCC[N+](C)(C)C [Succinylcholine chloride],-0.0133
3,CC(Cc1ccc(O)c(O)c1)(NN)C(=O)O (stereo not drawn) [S-(-)-Carbidopa],-0.00388
4,CN(C)c1ccc(O)c2c1C[C@H]1C[C@H]3[C@H](N(C)C)C(O)=C(C(N)=O)C(=O)[C@@]3(O)C(O)=C1C2=O [Minocycline hydrochloride],-0.116
5,CN(Cc1cnc2nc(N)nc(N)c2n1)c1ccc(C(=O)N[C@@H](CCC(=O)O)C(=O)O)cc1 [(-)Amethopterin],0.0291
6,CN(Cc1cnc2nc(N)nc(N)c2n1)c1ccc(C(=O)N[C@@H](CCC(=O)O)C(=O)O)cc1 [Abitrexate (Methotrexate)],-0.00271
7,CN(Cc1cnc2nc(N)nc(N)c2n1)c1ccc(C(=O)N[C@@H](CCC(=O)O)C(=O)O)cc1 [Methotrexate],1.33
8,COc1cc2c(CCNC(C)=O)c[nH]c2cc1Cl [6-Chloromelatonin],0.0563
9,Cc1ccc(S(=O)(=O)NC(=O)NN2CCCCCC2)cc1 [Tolazamide],-0.1
10,"C=CCn1c(=O)c2c(nc(-c3ccc(S(=O)(=O)O)cc3)n2C)n(C)c1=O [1-Allyl-3,7-dimethyl-8-p-sulfophenylxanthine]",0.0816
11,Nc1ccn([C@@H]2O[C@H](CO)[C@@H](O)[C@@H]2O)c(=O)n1 [Cytarabine],5.29
12,Nc1ccn([C@@H]2O[C@H](CO)[C@@H](O)[C@@H]2O)c(=O)n1 [Cytosine-1-beta-D-arabinofuranoside hydrochloride],6.82
13,Nc1ncnc2c1ncn2C1CCCO1 (stereo not drawn),-0.407
14,Cc1[nH]c2ccccc2c1CCNCc1ccc(/C=C/C(=O)NO)cc1 [Panobinostat],2.8
15,N[C@@H](Cc1ccc(O)c(I)c1)C(=O)O [3-Iodo-L-tyrosine],0.12
16,CC(C)Cn1c(=O)n(C)c(=O)c2[nH]cnc21 [3-Isobutyl-1-methylxanthine],0.198
17,CCCCOc1cc(CC2CNC(=O)N2)ccc1OC (stereo not drawn),-0.0563
18,Nc1ccc(C(=O)Nc2cccc(-c3nc(N4CCOCC4)c4oc5ncccc5c4n3)c2)cn1,-0.0986
19,CN(C)CCCN1c2ccccc2Sc2ccc(Cl)cc21 [Chlorpromazine hydrochloride],0.0563
20,Cc1nc(-c2ccc(OCC(C)C)c(C#N)c2)sc1C(=O)O [Febuxostat (Uloric)],0.0352
21,CC(C)c1ccc2c(c1)c(SC(C)(C)C)c(CC(C)(C)C(=O)O)n2Cc1ccc(Cl)cc1,0.00473
22,Cc1nc(Nc2ncc(C(=O)Nc3c(C)cccc3Cl)s2)cc(N2CCN(CCO)CC2)n1,0.482
23,CCN1CCN(Cc2ccc(-c3cc4c(N[C@H](C)c5ccccc5)ncnc4[nH]3)cc2)CC1,-0.00425
24,CC(C)(C)c1ccc(C(O)CCCN2CCC(C(O)(c3ccccc3)c3ccccc3)CC2)cc1 (stereo not drawn) [Terfenadine],-0.834

# Reference: the supplement of paper PMC5355238
